# Source: US20190300576A1
# Chains of the proteins cited; added tags and fusions are not shown. Residues count along the entry.
# UniProt Q00987, residues 25-109: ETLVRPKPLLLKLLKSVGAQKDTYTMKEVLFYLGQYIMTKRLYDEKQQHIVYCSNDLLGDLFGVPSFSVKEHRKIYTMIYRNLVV
# These are yes or no findings as the source states them, for the method shown. For some assays here: In cells and extracts the contact can be indirect. Some binding calls cover weakened binding; strength is not graded here.
# Biological target: SUMO-^25-109MDM2 (UniProt Q00987)
# Experiment: HPSEC affinity selection from Library 2, low stringency, LC-MS
row,binding,Binder
1,binds,LTLEHYWAQLTSK (C-terminal amide) [sequence 8 (Library 2 member)]
2,binds,LTYEHYWAQLTSK (C-terminal amide) [sequence 9 (Library 2 member)]
3,binds,LTFEHYWAQYTSK (C-terminal amide) [sequence 7 (Library 2 member)]

# Biological target: SUMO-^25-109MDM2 (UniProt Q00987)
# Experiment: HPSEC affinity selection from Library 1 by MDM2, LC-MS/MS de novo decoding
row,binding,Binder
1,binds,LTFQHYWASLTSK (C-terminal amide (-NH2)) [(SEQ ID NO: 89)]
2,binds,LTFEHYWAALTSK (C-terminal amide (-NH2)) [(SEQ ID NO: 81)]
3,binds,LTFEHYWAALTSK (C-terminal amide (-NH2)) [(SEQ ID NO: 87)]
4,binds,LTFQHYWAGLTSK (C-terminal amide (-NH2)) [(SEQ ID NO: 77)]
5,binds,LTFSHYWASLTSK (C-terminal amide (-NH2)) [(SEQ ID NO: 85)]
6,binds,LTFEHEWALLTSK (C-terminal amide (-NH2)) [(SEQ ID NO: 83)]
7,binds,LTFQHFWAQLTSK (C-terminal amide (-NH2)) [(SEQ ID NO: 90)]
8,binds,LTFPHYWAALTSK (C-terminal amide (-NH2)) [(SEQ ID NO: 80)]
9,binds,LTFEHEWAQLTSK (C-terminal amide (-NH2)) [(SEQ ID NO: 86)]
10,binds,LTFFHYWAQLTSK (C-terminal amide (-NH2)) [(SEQ ID NO: 84)]
11,binds,LTFAHEWALLTSK (C-terminal amide (-NH2)) [(SEQ ID NO: 82)]
12,binds,LTFFHAWAQLTSK (C-terminal amide (-NH2)) [(SEQ ID NO: 93)]
13,binds,LTFPHYWAQLTSK (C-terminal amide (-NH2)) [(SEQ ID NO: 88)]
14,binds,LTFFHYWAGLTSK (C-terminal amide (-NH2)) [(SEQ ID NO: 91)]

# Biological target: SUMO-^25-109MDM2 (UniProt Q00987)
# Experiment: BLI
row,binding,Binder
1,binds,LTYEHYWAQLTSK (N-terminal acetylation; C-terminal amide) [peptide 9b]
2,binds,LTFEHYWAQYTSK (N-terminal acetylation; C-terminal amide) [peptide 7b]
3,binds,LTLEHYWAQLTSK (N-terminal acetylation; C-terminal amide) [peptide 8b]
